Here are results for one molecule from doi:10.1101/2022.09.16.508221 (bioRxiv, 2022).

The target of this experiment is N-terminal BED domain of the Hermes transposase (residues 1-78) (Musca domestica) (UniProt Q25438). Put plainly: crystal structure.

These are yes or no findings as the source states them, for the method shown.

B1: N-terminal BED domain of the Hermes transposase (residues 1-78) (domain or fragment, UniProt Q25438 1-78)
chain: MQKMDNLEVKAKINQGLYKITPRHKGTSFIWNVLADIQKEDDTLVEGWVFCRKCEKVLKYTTRQTSNLCRHKCCASLK
On to B1, for which the binding result is “no binding”.
